According to patent EP4727976A2:
No constants are given. Whether binding was seen depends on the method and setting. Binding calls can cover weak binding; strength is not graded here.

Columns and labels:
[1] = molecular target: Cynomolgus MICA (Cynomolgus); experiment: BLI (Gator Bio), antibody on anti-Fc biosensors, 200 nM antigen, monovalent format
[2] = molecular target: Cynomolgus MICA (Cynomolgus); experiment: BLI binding kinetics (legend of FIG. 8)

binding [1]: binds
binding [2]: binds
B1: ATX-P-1826 (fully humanized anti-MICA antibody) (antibody, human IgG1, kappa, V domains shown)
VH: QVQLVQSGAEVRKPGASVKVSCKASGYTFTGNYIHWVRQAPGQGLEWMGWINPNSGATNSAQKFQGRVTTTRDTSIDTAYMELSRLRSDDTAVYYCARDTFKPYYYYYLDVWGKGTTVTVSS
VL: DIQMTQSPSSVSASVGDRVTITCRTSQAINSWLAWYQQKPGKPPKLLISAASSLQSGVPSRFSGSGSGTDFTLTISNLQPEDFATYYCQQANIFPLTFGGGTKVEIKR
